PubChem BioAssay AID652243 – Drosophila RNAi Screening Center, 2013

- Purpose: 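Fly regulators of androgen-dependent reporter output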 (primary screen)
- System: Drosophila S2R+ cells
- Reagents: long dsRNA against Drosophila genes
- Timing: 72 h (48 h, then 24 h hormone)
- Challenge: synthetic androgen R1881 at 10 nM for 24 h
- Detection: 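Firefly light from an androgen-responsive reporter and Renilla control light per well, raw and unnormalised, for each of two replicates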
- Direction: firefly reporter light: higher = more light from androgen-responsive reporter; Renilla control light: higher = more constitutive control signal (cell number, transfection)
- Hit rule: 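Hit when the log firefly-to-Renilla ratio dropped or increased by a fixed fold versus the mean of GFP or LacZ controls across duplicate plates; lowering cut given as 1.5 and as 3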
- Meaning of the calls: active = hit: reporter lowered or raised; inactive = no hit
The deposit covers about 24,000 reagents; this is an unselected part of those that have a named target and a result. In the full data, 246 (1%) were called active. 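Plates not normalised; calls are printed but the firefly/Renilla ratio behind them is not deposited; fold cut for lowering reported inconsistently.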 Raw values vary from plate to plate and are shown uncorrected. Reagents against one gene are numbered here. Not given: the amount of reagent.

| Gene | dsRNA no. | firefly reporter light, replicate 1 | firefly reporter light, replicate 2 | Renilla control light, replicate 1 | Renilla control light, replicate 2 | Call |
| --- | --- | --- | --- | --- | --- | --- |
| CG15140 | 1 | 2.76e5 | 3.26e5 | 2.77e6 | 3.42e6 | inactive |
| CG31681 | 1 | 1.82e5 | 1.75e5 | 4.29e5 | 2.10e5 | inactive |
| CG31681 | 2 | 4.03e5 | 4.36e5 | 8.72e5 | 8.34e5 | inactive |
| rho-4 | 1 | 85537 | 53868 | 8.16e5 | 5.42e5 | inactive |
| rho-4 | 2 | 5.58e5 | 6.83e5 | 4.89e6 | 2.61e6 | inactive |
| fy | 1 | 1.73e5 | 1.23e5 | 1.59e6 | 1.39e6 | inactive |
| fy | 2 | 2.76e5 | 3.85e5 | 8.22e5 | 9.21e5 | inactive |
| Dll | 1 | 3.26e5 | 3.23e5 | 2.20e6 | 2.24e6 | inactive |
| Dll | 2 | 2.34e5 | 2.64e5 | 5.44e5 | 5.40e5 | inactive |
| Pburs | 1 | 1.44e5 | 1.33e5 | 1.87e6 | 1.57e6 | inactive |
| CG2614 | 1 | 4.39e5 | 5.17e5 | 2.10e6 | 4.05e6 | inactive |
| RpS19b | 1 | 1.14e5 | 1.16e5 | 1.40e6 | 1.29e6 | inactive |
| snz | 1 | 2.88e5 | 3.05e5 | 1.23e6 | 1.80e6 | inactive |
| CG32523 | 1 | 2.02e5 | 1.50e5 | 5.88e5 | 5.23e5 | inactive |
| Gs1 | 1 | 1.43e6 | 9.34e5 | 5.24e6 | 2.57e6 | inactive |
| Gs1 | 2 | 2.82e5 | 3.76e5 | 1.19e6 | 1.22e6 | inactive |
| Tom70 | 1 | 3.75e5 | 4.63e5 | 2.39e6 | 1.91e6 | inactive |
| CG17191 | 1 | 1.77e5 | 2.32e5 | 1.18e6 | 2.34e6 | inactive |
| CG17191 | 2 | 6.98e5 | 6.35e5 | 7.22e5 | 6.80e5 | inactive |
| CG15909 | 1 | 4.44e5 | 4.43e5 | 1.35e6 | 1.71e6 | inactive |
| CG15531 | 1 | 2.45e5 | 2.71e5 | 1.73e6 | 2.82e6 | inactive |
| CG15531 | 2 | 9.73e5 | 8.37e5 | 9.74e5 | 7.41e5 | inactive |
| CG15531 | 3 | 8.58e5 | 5.99e5 | 1.99e6 | 1.96e6 | inactive |
| Grl36b | 1 | 1.76e5 | 2.81e5 | 5.02e5 | 5.86e5 | inactive |
